# Measurements taken from PubChem BioAssay AID445 (National Center for Advancing Translational Sciences (NCATS), 2006).
# The other results are listed elsewhere or left out. These are further read-outs of the screen, such as a control signal, another cell line or another target. No call is given for them. The list favours compounds with an active or inconclusive main result. The note in brackets gives the kind of curve behind each potency; many fits are weak.
# Experiment: IkB Signaling
# Conditions: ABC-DLBCL IkBa-CBG/CBR dual luciferase ratio (green luciferase fused to IkBa over red control in OCI-Ly3 lymphoma cells), 4 h
# Outline: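 Luminescence ratio of IκBα-fused green versus native red beetle luciferase in OCI-Ly3 cells, 4 h post-doxycycline with compound; red signal alone, scaled from basal (0%) to zero light (-100%), flagged nonspecific or cytotoxic effects.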
# [1] = measured here: control luc red channel unless noted
compound,measurement,setting,value
O=C(NCc1ccco1)c1cc(S(=O)(=O)N2CCOCC2)c(Cl)cc1Cl,AC50,[1],"5.01 µM [rising, partial curve] [measured here: IkB-luc green channel]"
Cc1ccc(-c2nc3scc(CCNS(=O)(=O)c4ccc(Oc5ccccc5)cc4)n3n2)cc1,AC50,[1],"5.01 µM [rising, partial curve]"
CCOC(=O)c1c(-c2ccccc2)csc1NC(=O)c1nc(SCC)ncc1Cl,AC50,[1],"1.26 µM [falling, partial curve]"
CC(=O)Nc1ccc(NC(=O)c2ncoc2-c2ccco2)cc1,AC50,[1],"20 µM [falling, single point]"
Cc1ccc2nc(CSc3nnc(NC(=O)c4ccc(C(C)(C)C)cc4)s3)cc(=O)n2c1,AC50,[1],"6.31 µM [rising, single point]"
Cc1cccc(CC(=O)N2CC(=O)Nc3ccc(F)cc3C2c2ccccc2)c1 (configuration not stated),AC50,[1],"20 µM [falling, partial curve]"
NC(N)=NC(N)=Nc1cccc(Cl)c1,AC50,[1],"39.8 µM [falling, partial curve]"
Cc1ccc(CNC(=O)CSc2c(C(C)C)cnc3c2c(=O)n(C)c(=O)n3C)cc1,AC50,[1],"31.6 µM [falling, single point]"
CCc1ccccc1NC(=O)Nc1ccc2snnc2c1,AC50,[1],"31.6 µM [falling, partial curve]"
CCC(CC)C(=O)N1CCc2cc(OC)c(OC)cc2C1COc1ccc(F)cc1 (configuration not stated),AC50,[1],"31.6 µM [falling, single point]"
Cc1cccc(-n2ncc(C(=O)NCc3ccc4c(c3)OCO4)c2C2CCN(C(=O)OC(C)(C)C)CC2)c1,AC50,[1],"15.8 µM [falling, partial curve]"
Cc1cccc(-c2noc(CN(C(=O)c3c(-c4ccccc4Cl)noc3C)C(C)C)n2)c1,AC50,[1],"10 µM [falling, partial curve]"
O=C(CSc1nc(Nc2ccc(F)c(F)c2)c2ccccc2n1)c1ccc(Cl)cc1,AC50,[1],"25.1 µM [falling, partial curve, poor fit]"
CC1=C(C(=O)Nc2ccccc2)C(c2ccc(O)cc2)n2nc(-c3ccc(Cl)cc3)nc2N1 (configuration not stated),AC50,[1],"15.8 µM [falling, partial curve]"
Cc1oc2ccc(O)c(CN3CCC(C)CC3)c2c1C(=O)Nc1ccccc1,AC50,[1],"15.8 µM [falling, partial curve, poor fit]"
CCn1c(CN2CCCCC2)nc2cc(NC(=O)COc3ccc(C(C)(C)C)cc3)ccc21,AC50,[1],"12.6 µM [falling, partial curve]"
Cc1cccc(N2CCN(C(=O)c3ccc(NS(=O)(=O)c4c(C)noc4C)cc3)CC2)c1C,AC50,[1],"15.8 µM [falling, partial curve]"
CCCN1C(=O)C(Cc2nc3ccccc3c(=O)n2CC)c2cc(Br)ccc21 (configuration not stated),AC50,[1],"39.8 µM [falling, single point]"
Cc1ccc(CN2C(=O)C3(c4ccccc42)N(c2ccc(C)c(Cl)c2)C(=O)CS3(=O)=O)cc1 (configuration not stated),AC50,[1],"0.0398 µM [falling, full curve]"
O=C(CCC1N=C2c3ccccc3N=C(SCc3cccc(Cl)c3)N2C1=O)NCCc1ccccc1 (configuration not stated),AC50,[1],"25.1 µM [falling, partial curve]"
CCOC(=O)CSc1cccc2cccnc12,AC50,[1],"5.01 µM [rising, full curve] [measured here: IkB-luc green channel]"
COc1ccc(Br)cc1CNC(=O)CSc1n[nH]c(-c2ccccc2)n1,AC50,[1],"31.6 µM [falling, single point]"
Cc1nn(Cc2ccccc2)c(Cl)c1C(=O)OCc1nnc(-c2ccc(Cl)cc2)o1,AC50,[1],"31.6 µM [falling, partial curve]"
Cc1ccc2[nH]c3c(=O)n(CC(=O)NCCCN4CCN(c5ccc(F)cc5)CC4)ncc3c2c1,AC50,[1],"6.31 µM [rising, single point]"
Cc1cccc(C)c1NC(=O)c1nc(SC(C)C)ncc1Cl,AC50,[1],"10 µM [falling, partial curve]"
COCCCNC(=O)C1CCN(C(=O)c2ccc(-n3ccc4ccccc43)s2)CC1,AC50,measured here: IkB-luc green channel,"1.58 µM [rising, partial curve]"
same,AC50,measured here: control luc red channel,"25.1 µM [falling, partial curve]"
Cc1cc(C)cc(N(CC(=O)Nc2ccc(C)cc2Cl)S(=O)(=O)c2c(C)[nH]c(=O)[nH]c2=O)c1,AC50,[1],"20 µM [falling, single point]"
Cc1ccccc1CNC(=O)Cc1csc2ccccc12,AC50,[1],"12.6 µM [falling, single point]"
CCN(CC)C(=O)c1sc2c(c1C)c(=O)n(Cc1ccccc1)c(=O)n2CC(=O)Nc1ccc(OC)cc1,AC50,[1],"5.01 µM [rising, partial curve]"
O=c1c(NCCc2ccc(Cl)cc2)nccn1-c1ccccc1,AC50,[1],"0.501 µM [rising, full curve]"
COc1ccc(OC)c(CCNC(=O)c2cc3cccc4c3n2CCS4)c1,AC50,[1],"20 µM [falling, single point]"
Cc1cc2n(n1)CCCN2C(=O)Nc1ccc(C)c(Cl)c1,AC50,[1],"10 µM [rising, partial curve]"
Cc1ccc(C)c(N2CCN(S(=O)(=O)c3ccc(F)c(C(=O)Nc4ccc(Cl)cc4Cl)c3)CC2)c1,AC50,[1],"7.94 µM [falling, partial curve]"
CCN(Cc1ccccc1)C(=O)CCS(=O)(=O)c1cc(Br)cc2c1N(C(=O)C1CC1)CC2,AC50,[1],"31.6 µM [falling, single point]"
CN(c1ccccc1)S(=O)(=O)c1nnc(NC(=O)c2cccs2)s1,AC50,[1],"0.316 µM [rising, partial curve]"
CCOC(=O)c1c(C)oc2ccc(N(C(=O)c3ccncc3)S(=O)(=O)c3ccc(F)cc3)cc12,AC50,[1],"31.6 µM [falling, single point]"
COc1cccc(NC2=CC(c3ccc(C(C)C)cc3)N(c3cccc(OC)c3)C2=O)c1 (configuration not stated),AC50,[1],"3.98 µM [falling, full curve]"
COc1ccc(C)cc1NS(=O)(=O)c1cc(Br)cc2c1N(C(C)=O)C(C)C2 (configuration not stated),AC50,[1],"20 µM [falling, partial curve]"
COc1ccc(/C=N/n2c(SC)nnc2-c2ccccc2)cc1C,AC50,[1],"15.8 µM [falling, partial curve]"
Cc1c(C(=O)N(Cc2cccc(Cl)c2)Cc2ccco2)oc2ccccc12,AC50,[1],"20 µM [falling, partial curve]"
O=C(CN1CCN(c2nc(-c3ccc(Cl)cc3)cs2)CC1)NCc1ccco1,AC50,[1],"31.6 µM [falling, partial curve]"
COc1cccc(CNC(=O)CSc2nnc(C)c3c(C)n(-c4ccccc4)nc23)c1,AC50,[1],"12.6 µM [falling, partial curve]"
Cc1ccccc1Nc1c(-c2ccc(O)cc2)nc2c(C)cccn12,AC50,[1],"20 µM [falling, partial curve]"
CCC(C(=O)Nc1ccc(F)cc1F)n1nc(-c2ccccc2)c2c(c1=O)CCCC2 (configuration not stated),AC50,[1],"20 µM [falling, partial curve]"
COc1ccc(Cl)cc1S(=O)(=O)N1CCC(c2ccncc2)CC1,AC50,[1],"20 µM [falling, partial curve, poor fit]"
CC(=O)N1c2ccccc2CC1C(=O)N1CCN(c2cc(Cl)ccc2C)CC1 (configuration not stated),AC50,[1],"25.1 µM [falling, partial curve]"
O=C(c1cccn1-c1nnc(N2CCCC2)s1)N1CCN(c2ccc(F)cc2)CC1,AC50,[1],"15.8 µM [falling, partial curve]"
Cc1cccc(OCC(=O)NCc2ccc3c(c2)CCN3C(=O)c2ccc(Cl)cc2)c1,AC50,[1],"1.58 µM [falling, partial curve, poor fit]"
Cc1ccc(-c2noc(C3CCCN(C(=O)c4ccc(F)cc4F)C3)n2)cc1 (configuration not stated),AC50,[1],"12.6 µM [falling, partial curve]"
COc1ccc(NC(=O)COc2ccccc2C#N)c(S(=O)(=O)N2CCCCC2)c1,AC50,[1],"12.6 µM [falling, partial curve]"
CCOc1ccc(NC(=O)c2c(NC(=O)c3ccncc3)sc3c2CCC(C(C)(C)C)C3)cc1 (configuration not stated),AC50,[1],"10 µM [falling, partial curve]"
CC(=O)N1CCCc2cc(S(=O)(=O)N3CCCC(C(=O)N4CCN(c5ccccc5F)CC4)C3)ccc21 (configuration not stated),AC50,[1],"25.1 µM [falling, partial curve]"
Cc1ccc2c(c1)-c1c(cnn1CC(=O)N1CCN(c3cccc(C(F)(F)F)c3)CC1)CO2,AC50,[1],"0.316 µM [falling, partial curve]"
COc1ccc(NC(=O)c2ccc(=O)oc2)cc1,AC50,[1],"12.6 µM [falling, partial curve]"
O=C(Nc1ccc(N2CCN(C(=O)c3ccccc3)CC2)cc1)c1cc2ccccc2o1,AC50,[1],"3.98 µM [falling, partial curve] [measured here: IkB-luc green channel]"
Cc1nc(SCC(=O)OC(C)(C)C)c2c3c(sc2n1)CCCC3,AC50,[1],"31.6 µM [falling, single point]"
COc1ccc(-n2c(SCC(=O)NCc3ccccc3)nc3ccsc3c2=O)cc1,AC50,[1],"1 µM [rising, full curve, poor fit]"
COC(=O)c1sccc1S(=O)(=O)N(CC(=O)Nc1cc(C)cc(C)c1)c1ccc(Cl)cc1,AC50,[1],"10 µM [falling, partial curve]"
O=C(c1ccc(C#Cc2ccccc2)o1)N1CCN(c2ccccn2)CC1,AC50,[1],"31.6 µM [falling, partial curve]"
COc1ccc(NC(=O)c2nn(C)c3c2CSc2ccc(C)cc2-3)cc1OC,AC50,[1],"12.6 µM [falling, partial curve]"
COc1ccc(CNC(=O)c2ccc(CNS(=O)(=O)c3ccc(OC)cc3)cc2)cc1,AC50,[1],"1 µM [falling, partial curve]"

# Random excerpt: 3 entries already listed
compound,measurement,setting,value
Cc1ccc(-c2noc(C3CCCN(C(=O)c4ccc(F)cc4F)C3)n2)cc1 (configuration not stated),AC50,[1],"12.6 µM [falling, partial curve]"
COC(=O)c1sccc1S(=O)(=O)N(CC(=O)Nc1cc(C)cc(C)c1)c1ccc(Cl)cc1,AC50,[1],"10 µM [falling, partial curve]"
COCCCNC(=O)C1CCN(C(=O)c2ccc(-n3ccc4ccccc43)s2)CC1,AC50,measured here: control luc red channel,"25.1 µM [falling, partial curve]"
